These are yes or no findings as the source states them, for the method shown. In cells and extracts the contact can be indirect. Some entries that bind do so weakly or less than the wild type.
Biological target: Histone deacetylase 1 (HDAC1) (mouse (endogenous in cortex and hippocampus)) (UniProt O09106)
Assay: co-IP; HDAC1 immunoprecipitated from cortical and hippocampal nuclear extracts of wild-type mice (cortex: 2-month-old, n = 2); IP buffer 50 mM Tris-HCl pH 8.0, 150 mM NaCl, 0.5% Triton X-100, 0.1% NP-40; 5 ug antibody overnight at 4 C, Protein A Sepharose; OGG1 detected by western blot

Sequences of proteins named here, by UniProt entry; tags and fusion partners are left off.
UniProt O09106: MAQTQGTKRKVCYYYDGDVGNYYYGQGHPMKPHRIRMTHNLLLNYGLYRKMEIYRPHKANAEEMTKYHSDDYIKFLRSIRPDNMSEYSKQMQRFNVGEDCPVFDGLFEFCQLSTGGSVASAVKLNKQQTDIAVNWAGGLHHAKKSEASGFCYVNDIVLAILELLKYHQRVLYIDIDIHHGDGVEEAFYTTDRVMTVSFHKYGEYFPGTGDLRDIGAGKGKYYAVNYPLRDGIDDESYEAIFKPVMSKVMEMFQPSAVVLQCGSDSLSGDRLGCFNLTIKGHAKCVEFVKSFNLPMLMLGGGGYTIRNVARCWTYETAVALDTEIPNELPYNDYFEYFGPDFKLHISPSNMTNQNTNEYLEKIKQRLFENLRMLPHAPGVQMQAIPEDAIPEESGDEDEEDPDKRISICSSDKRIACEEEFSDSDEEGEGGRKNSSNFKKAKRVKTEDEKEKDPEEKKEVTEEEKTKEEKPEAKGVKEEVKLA
UniProt O08760: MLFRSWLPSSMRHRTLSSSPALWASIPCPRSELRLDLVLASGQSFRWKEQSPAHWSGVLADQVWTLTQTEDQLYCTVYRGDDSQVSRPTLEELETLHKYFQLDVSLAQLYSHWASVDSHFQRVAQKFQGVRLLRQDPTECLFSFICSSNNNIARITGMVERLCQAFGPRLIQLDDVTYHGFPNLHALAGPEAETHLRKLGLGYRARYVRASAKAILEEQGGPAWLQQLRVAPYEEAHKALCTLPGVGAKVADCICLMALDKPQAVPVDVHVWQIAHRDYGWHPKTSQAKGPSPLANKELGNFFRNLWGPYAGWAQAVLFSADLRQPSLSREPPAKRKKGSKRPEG

“8-oxoguanine DNA glycosylase 1 (OGG1) (from UniProt O08760 1-345) (enzyme)” was tested, and the binding was “binds”.

Source: paper PMC7235043
